The values below come from US20180140679A1, “MODULATION OF AXL RECEPTOR ACTIVITY IN COMBINATION WITH CYTOREDUCTIVE THERAPY” (THE BOARD OF TRUSTEES OF THE LELAND STANFORD JUNIOR …, priority 2016, published 2018).

For this assay, the target named is T1, mouse Gas6 (mouse, UniProt Q61592 115-674, limits assumed).
T1 construct: Recombinant in KinExA (detected through a 6xHIS tag); also called mGas6
T1 sequence (looked up): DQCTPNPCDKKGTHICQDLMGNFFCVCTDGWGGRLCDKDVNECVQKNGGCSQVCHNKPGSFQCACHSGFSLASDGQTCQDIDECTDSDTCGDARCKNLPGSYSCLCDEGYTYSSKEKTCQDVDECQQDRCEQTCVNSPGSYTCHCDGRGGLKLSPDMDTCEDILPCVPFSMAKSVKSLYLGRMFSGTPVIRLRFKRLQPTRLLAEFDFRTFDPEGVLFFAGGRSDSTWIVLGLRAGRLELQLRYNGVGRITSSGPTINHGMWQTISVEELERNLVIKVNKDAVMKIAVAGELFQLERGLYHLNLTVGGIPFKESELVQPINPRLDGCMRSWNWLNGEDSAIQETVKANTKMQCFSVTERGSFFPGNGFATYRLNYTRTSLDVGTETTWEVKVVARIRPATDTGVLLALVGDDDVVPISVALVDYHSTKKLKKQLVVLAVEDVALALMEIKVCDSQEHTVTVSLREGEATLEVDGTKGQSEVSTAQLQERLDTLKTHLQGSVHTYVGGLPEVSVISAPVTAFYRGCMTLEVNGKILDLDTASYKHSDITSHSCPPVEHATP
As to the kind of experiment: KinExA. (A kinetic exclusion assay measures how much of one partner remains free in solution.)

Results are given in words; binding and its absence hold for the method and conditions named. Some results given as binding are weak or reduced against the parent protein; the word gives no strength.

B1: MYD1-Fc (Fc fusion)
chain: APRGTQAEESPFVSNPGNITGARGLTGTLRCQLQVQGEPPEVHWLRDGQILELADSTQTQVPLGEDEQGDWIVASQLRITSLQLSDTGQYQCLVFLGHQTFVSQPGYVRLEGLPYFLEEPEDRTVAANTPFNLSCQAQGPPEPVDLLWLQDAVPLATAPGHGPQRSLHVPGLNKTSSFSCEAHNAKGVTTSRTATITVLPQQPRNLHLVSRQPTELEVAWTPGLSGIYPLTHCTLQAVLSNDGMGIQAGEPDPPEEPLTSQASVPPHQLRLGSLHPHTPYHIRVACTSSQGPSSWTHWLPVETPEGVPLGPPENISATRNGSQAFVHWQEPRAPLQGTLLGYRLAYQGQDTPEVLMDIGLRQEVTLELQGDGSVSNLTVCVAAYTAAGDGPWSLPVPLEAWRPGQAQPVHQLVKEPSTPAFS
notes: Dimeric Fc fusion made in HEK293; MYD1 mutations deduced as MYD1-72 minus A72V; not shown: Fc domain
As to B1, the binding result is on record as “binds”.

B2: MYD1-72 Fc (Fc fusion)
chain: APRGTQAEESPFVSNPGNITGARGLTGTLRCQLQVQGEPPEVHWLRDGQILELVDSTQTQVPLGEDEQGDWIVASQLRITSLQLSDTGQYQCLVFLGHQTFVSQPGYVRLEGLPYFLEEPEDRTVAANTPFNLSCQAQGPPEPVDLLWLQDAVPLATAPGHGPQRSLHVPGLNKTSSFSCEAHNAKGVTTSRTATITVLPQQPRNLHLVSRQPTELEVAWTPGLSGIYPLTHCTLQAVLSNDGMGIQAGEPDPPEEPLTSQASVPPHQLRLGSLHPHTPYHIRVACTSSQGPSSWTHWLPVETPEGVPLGPPENISATRNGSQAFVHWQEPRAPLQGTLLGYRLAYQGQDTPEVLMDIGLRQEVTLELQGDGSVSNLTVCVAAYTAAGDGPWSLPVPLEAWRPGQAQPVHQLVKEPSTPAFS
notes: Dimeric Fc fusion made in HEK293; also called MYD-72 Fc; second generation Axl decoy receptor; not shown: Fc domain
With B2, the binding result is given as “binds”.
